PubChem BioAssay AID1671195 | Yale University | 2021
This is a random part of about 22,000 deposited reagents. Over the whole deposit, about 1,510 (6.9%) got an active call. 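Active includes knockdowns raising or lowering LDL uptake; positive z-scores mean more uptake, negative mean less.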 Reagent sequences are not shown.

- Assay: 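Regulators of LDL receptor activity judged by labelled LDL uptake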 (primary screen)
- Cell system: human Huh7 hepatoma cells
- Knock-down reagent: siRNA pool against human genes, 18 nM
- Timing: about 2 to 2.5 days of knockdown, then 8 h LDL uptake
- Treatment: DiI-labelled LDL at 30 µg/ml for 8 h, in lipoprotein-deficient serum medium
- Measurement: 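Fluorescent LDL signal imaged in cells, scaled to the plate median, robust z-score for each replicate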
- Direction: robust z-score: higher = more LDL uptake after knockdown
- Call rule: 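a gene counts as active if at least two replicate z-scores exceed ±2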

RABEP2
- robust z-score, replicate 1: -0.827
- robust z-score, replicate 2: -1.02
- robust z-score, replicate 3: -0.863
- activity call: inactive

SYN3
- robust z-score, replicate 1: -0.84
- robust z-score, replicate 2: -1.28
- robust z-score, replicate 3: -1.57
- activity call: inactive

ANTXR2
- robust z-score, replicate 1: -0.11
- robust z-score, replicate 2: -0.833
- robust z-score, replicate 3: -0.046
- activity call: inactive

DCT
- robust z-score, replicate 1: 0.555
- robust z-score, replicate 2: -0.0626
- robust z-score, replicate 3: 1.28
- activity call: inactive

KDM6B
- robust z-score, replicate 1: -2.37
- robust z-score, replicate 2: -2.39
- robust z-score, replicate 3: -1.82
- activity call: active

RUSC2
- robust z-score, replicate 1: -0.0537
- robust z-score, replicate 2: -1.12
- robust z-score, replicate 3: -2.13
- activity call: inactive

RDX
- robust z-score, replicate 1: -0.681
- robust z-score, replicate 2: 0.572
- robust z-score, replicate 3: -0.114
- activity call: inactive

FAM78A
- robust z-score, replicate 1: -0.292
- robust z-score, replicate 2: 0.0738
- robust z-score, replicate 3: -0.289
- activity call: inactive

NUDT21
- robust z-score, replicate 1: -0.483
- robust z-score, replicate 2: -0.404
- robust z-score, replicate 3: -0.538
- activity call: inactive

PARG
- robust z-score, replicate 1: -1.3
- robust z-score, replicate 2: -0.696
- robust z-score, replicate 3: -1.12
- activity call: inactive

DPP10
- robust z-score, replicate 1: -1.38
- robust z-score, replicate 2: -1.2
- robust z-score, replicate 3: -1.4
- activity call: inactive

SPACA9
- robust z-score, replicate 1: -0.244
- robust z-score, replicate 2: -0.0754
- robust z-score, replicate 3: 0.122
- activity call: inactive

ZNF431
- robust z-score, replicate 1: 0.0161
- robust z-score, replicate 2: 0.355
- robust z-score, replicate 3: -0.321
- activity call: inactive

LOC441776 (retired record)
- robust z-score, replicate 1: 0.0408
- robust z-score, replicate 2: -0.0862
- robust z-score, replicate 3: -0.0735
- activity call: inactive

ZNF847P
- robust z-score, replicate 1: 1
- robust z-score, replicate 2: 1.39
- robust z-score, replicate 3: 1.92
- activity call: inactive

STAT2
- robust z-score, replicate 1: -0.894
- robust z-score, replicate 2: -0.344
- robust z-score, replicate 3: -0.633
- activity call: inactive

A few values from above.
Result of SYN3 in “activity call”: inactive
Value for ZNF847P in “robust z-score, replicate 2”: 1.39
